{"source": "patent US20230263803A1", "about": "“METHODS OF PREVENTING OR TREATING COVID-19 AND RELATED VIRAL DISEASES OR DISORDERS” (KINARUS AG, priority 2020, published 2023)", "tested_on": "SARS-CoV-2PR1", "type": "cell-based", "conditions": "at the highest concentration(s); Vero B4 cells, 72 hrs, qRT-PCR", "note": "Some entries share one result that the patent states for a list of compounds. At least one structure is not confirmed: it was looked up by name or label, or the drawing left a doubt."}
{"molecule": "CC(C)Cn1ncc2cc(Oc3ccc(F)cc3F)c(C(=O)NCCN(C)C)cc21", "note": "[ARRY-797]", "values": [{"measurement": "inhibition of viral shedding", "value": "> 90", "unit": "%"}]}
